According to PubChem BioAssay AID1487 (National Center for Advancing Translational Sciences (NCATS), 2009):
“And” between values parts separate entries of the source, which are not always exact repeats. Identical values can stand only once. Among all 200,000 compounds or so, about 25 (0.01%) were called active. The inconclusive results got no clear call from the source; some entries with a clear call stand among them for comparison. Calls come from the whole dose curve; as a rule, active = well fitted inhibition curve with a large enough effect in the signal ratio, with a control signal flat (not every such curve was filed as active); inconclusive = small, poorly fitted or top-dose-only effect, or effect the other way, or a change in a side signal; inactive = flat fitted curve, though single readings scatter; the % refers to the signal ratio. Potencies beside an inconclusive call are fits to weak or partial responses and may not hold up.

assay: qHTS Assay for Modulators of Lamin A Splicing; conditions: HeLa LMNA splicing GFP/RFP minigene ratio, 48 h; ratio change, negative = inhibition: at 46.1 µM (top of the series) unless noted
Procedure, shortened: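 S3 HeLa stable clones carrying a lamin A-EGFP splicing minigene plus DsRed2 were seeded at 600 cells/well in Opti-MEM with 2% FBS, pin-dosed and incubated 48 h at 37°C. Acumen cytometry (488 nm) gave the GFP/RFP total-intensity ratio.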
% is set by controls: 0 for no effect and ±100 for the full control effect; potency is the fitted concentration of half-maximal effect.

**Q.** For Nc1ccccc1C(=O)OCc1ccc([N+](=O)[O-])cc1, which ratio change, negative = inhibition is on record?
**A.** The ratio change, negative = inhibition was inconclusive: 11.5% [at 46 µM].

**Q.** With COc1ccc2oc3c(c2c1)NC(=O)CN=C3c1ccccc1 as the compound, how does the ratio change, negative = inhibition read?
**A.** Its ratio change, negative = inhibition is inconclusive: -2.21% [at 46 µM].

**Q.** Which Potency does the source give for CCC1(C2=NCCN2)Cc2ccccc2O1 (configuration not stated) here?
**A.** The Potency was inconclusive: 0.0501 µM [inhibitor, full curve].

**Q.** Which ratio change, negative = inhibition does the source give for Cc1ccc(-n2c(/C=C/c3cccc(C(F)(F)F)c3)nc3ccccc3c2=O)cc1 here?
**A.** The ratio change, negative = inhibition was inconclusive: -1.76% [at 46 µM].

**Q.** Which Potency does the source give for C[N+]12CCC(CC1)[C@@H](OC(=O)C(O)(c1ccccc1)c1ccccc1)C2 here?
**A.** The Potency was inconclusive: 0.0004 µM.

**Q.** For Cc1cccc(OC(=O)N2CCOCC2)c1, which “ratio change, negative = inhibition” value is on record?
**A.** Its value is inactive: 13.7%.

**Q.** Which Potency does the source give for COc1ccc2c3c1O[C@H]1C[C@@H](O)C=C[C@@]31CCN(C)C2 here?
**A.** The Potency was inconclusive: 35.5 µM [inhibitor, single point].

**Q.** For Cc1cc(Br)ccc1N1C(=O)CC(=O)NC1=O, which “ratio change, negative = inhibition” value is on record?
**A.** Its value is inactive: -6.8%.

**Q.** With CN1CC[C@]2(C)c3cc(O)ccc3N(C)[C@@H]12 as the compound, how does the “ratio change, negative = inhibition” value read?
**A.** The value was inactive: -1.6%.

**Q.** Which ratio change, negative = inhibition does the source give for COc1ccc(C(=O)CC2(CC(=O)c3ccc(OC)cc3)C(=O)N(C)C(=O)N(C)C2=O)cc1 here?
**A.** Its ratio change, negative = inhibition is inconclusive: 8.1%.

**Q.** With C[C@]12CC[C@H]3[C@@H](CCC4=CC(=O)CC[C@@]43C)[C@@H]1CC[C@@H]2C(=O)CO as the compound, how does the ratio change, negative = inhibition read?
**A.** Its ratio change, negative = inhibition is inconclusive: 16%.

**Q.** With O=c1[nH]oc2c1CCNC2 as the compound, how does the ratio change, negative = inhibition read?
**A.** The ratio change, negative = inhibition was inconclusive: -17.6%.

**Q.** With O=C(O)CCCCC1SCC2NC(=O)NC21 (configuration not stated) as the compound, how does the “ratio change, negative = inhibition” value read?
**A.** The value was inactive: 7.42%.

**Q.** With O=C(CCCN1CCC2(CC1)C(=O)NCN2c1ccccc1)c1ccc(F)cc1 as the compound, how does the ratio change, negative = inhibition read?
**A.** The ratio change, negative = inhibition was inconclusive: -19.1% and inconclusive: -5.87%.

**Q.** With O=C(O)CF as the compound, how does the ratio change, negative = inhibition read?
**A.** The ratio change, negative = inhibition was inconclusive: -34.7%.

**Q.** With O=c1[nH]c2ccccc2c(=O)n1-c1ccc(Cl)cc1Cl as the compound, how does the ratio change, negative = inhibition read?
**A.** The ratio change, negative = inhibition was inconclusive: -22.1% [at 46 µM].

**Q.** With CCC(=NCCN1CCCCC1)c1c(O)n(C)c(=O)n(C)c1=O as the compound, how does the “ratio change, negative = inhibition” value read?
**A.** The value was inactive: 2.37%.

**Q.** With O=c1c2ccccc2nc(-c2ccccc2)n1-c1ccc(O)cc1 as the compound, how does the ratio change, negative = inhibition read?
**A.** The ratio change, negative = inhibition was inconclusive: 12.7% [at 46 µM].

**Q.** With CCOC(=O)C1(c2ccccc2)CCN(CC(=O)Nc2ccc(C)cc2)CC1 as the compound, how does the Potency read?
**A.** Its Potency is inconclusive: 0.0282 µM [inhibitor, full curve, poor fit].

**Q.** With O=C(Cn1ccc2ccccc2c1=O)NCC(=O)N1CCC2(CC1)OCCO2 as the compound, how does the ratio change, negative = inhibition read?
**A.** The ratio change, negative = inhibition was inconclusive: 9.67% [at 46 µM].

**Q.** With CC(=O)c1ccc2c(c1)C1C(Cl)C(Sc3ccccc3[N+](=O)[O-])CC1C(c1ccccc1)N2 (configuration not stated) as the compound, how does the “ratio change, negative = inhibition” value read?
**A.** The value was inactive: -11.7%.

**Q.** Which ratio change, negative = inhibition does the source give for COc1cc2c(C(=O)O)c(C)n(C)c2cc1Br here?
**A.** Its ratio change, negative = inhibition is inconclusive: 2.21% [at 46 µM].

**Q.** Which Potency does the source give for CCc1nn(CC(=O)N2CCN(Cc3ccc4c(c3)OCO4)CC2)c(=O)c2cc3occc3n12 here?
**A.** The Potency was inconclusive: 20 µM [falling, single point].

**Q.** For COC(=O)C(C)Oc1cc(C)cc2oc(=O)c3c(c12)CCC3 (configuration not stated), which ratio change, negative = inhibition is on record?
**A.** The ratio change, negative = inhibition was inconclusive: 3.85%.

**Q.** Which ratio change, negative = inhibition does the source give for CC[C@@H]1[C@@H]2C[C@H]3[C@H]4N(C)c5ccccc5[C@@]45C[C@@H]([C@@H]2[C@@H]5O)N3[C@H]1O here?
**A.** Its ratio change, negative = inhibition is inconclusive: -2.98%.

**Q.** For CNC(=O)Oc1cccc2ccccc12, which ratio change, negative = inhibition is on record?
**A.** Its ratio change, negative = inhibition is inconclusive: -20.8%.

**Q.** With Cc1ccccc1-n1c(O)c(C=Nc2ccc(N(C)C)cc2)c(=O)[nH]c1=O as the compound, how does the Potency read?
**A.** Its Potency is inconclusive: 12.6 µM [rising, partial curve, poor fit].

**Q.** For O=P(NS(=O)(=O)c1ccc(Cl)cc1)(Oc1ccccc1)Oc1ccccc1, which “ratio change, negative = inhibition” value is on record?
**A.** Its value is inactive: -1.85%.

**Q.** With O=C(c1cccn2c(=O)c3cc(Cl)ccc3nc12)N1CCC2(CC1)OCCO2 as the compound, how does the ratio change, negative = inhibition read?
**A.** Its ratio change, negative = inhibition is inconclusive: 11.3%.

**Q.** Which “ratio change, negative = inhibition” value does the source give for Cc1ccc(/C=C2/C(=O)NC(=O)N(CCc3ccc(F)cc3)C2=O)s1 here?
**A.** The value was inactive: -7.09%.

**Q.** Which “ratio change, negative = inhibition” value does the source give for NC(=O)c1c(NC(=O)c2ccc(S(=O)(=O)N(CCCl)CCCl)cc2)sc2c1CCCCC2 here?
**A.** Its value is inactive: 4.01%.

**Q.** Which ratio change, negative = inhibition does the source give for Cc1nc2cc(C(F)(F)F)ccc2n1C1CCN(Cc2nnnn2Cc2ccc3c(c2)OCO3)CC1 here?
**A.** Its ratio change, negative = inhibition is inconclusive: -27.7%.

**Q.** With Clc1ccc(N2CCNCC2)nn1 as the compound, how does the ratio change, negative = inhibition read?
**A.** The ratio change, negative = inhibition was inconclusive: 31.1% [at 9.22 µM].

**Q.** With c1ccc(-c2[nH]c(-c3ccccc3)[n+](CC3CO3)c2-c2ccccc2)cc1 (configuration not stated) as the compound, how does the Potency read?
**A.** The Potency was inconclusive: 10 µM [falling, partial curve].

**Q.** For Cc1cc(OC(=O)CCCNC(=O)OC(C)(C)C)c2c3c(c(=O)oc2c1)CCC3, which “ratio change, negative = inhibition” value is on record?
**A.** Its value is inactive: 14%.

**Q.** With CCCN1CCC[C@@H]2Cc3n[nH]cc3C[C@H]21 as the compound, how does the ratio change, negative = inhibition read?
**A.** Its ratio change, negative = inhibition is inconclusive: -15.5%.

**Q.** Which Potency does the source give for COC(=O)c1ccc(NC(=O)CSc2nc3ccc(N4C(=O)C5C6C=CC(C6)C5C4=O)cc3s2)cc1 (configuration not stated) here?
**A.** The Potency was inconclusive: 35.5 µM [falling, single point].

**Q.** Which “ratio change, negative = inhibition” value does the source give for CC(=O)Nc1ccc(C2CN(C)CC2C(=O)c2ccc(Cl)cc2)cc1 (configuration not stated) here?
**A.** Its value is inactive: 12.9% [at 46 µM].

**Q.** With CCC(C)N1CCN(C(=O)Cc2ccccc2)CC1 (configuration not stated) as the compound, how does the “ratio change, negative = inhibition” value read?
**A.** The value was inactive: -6.77%.

**Q.** With Cc1nn(Cc2ccccc2)c(C)c1C(=O)OCC(=O)Nc1ccccc1SCC#N as the compound, how does the ratio change, negative = inhibition read?
**A.** Its ratio change, negative = inhibition is inconclusive: 20.7%.

**Q.** For O=[N+]([O-])c1ccc(NCCCN2CCOCC2)c2ncccc12, which ratio change, negative = inhibition is on record?
**A.** The ratio change, negative = inhibition was inconclusive: 30% [at 46 µM].

**Q.** With CCCCC(C)C(OC(=O)CC(CC(=O)O)C(=O)O)C(CC(C)CC(O)CCCCC(O)CC(O)C(C)N)OC(=O)CC(CC(=O)O)C(=O)O (configuration not stated) as the compound, how does the “ratio change, negative = inhibition” value read?
**A.** Its value is inactive: -0.0047%.

**Q.** With CCC[C@@](C)(COC(N)=O)COC(=O)NC(C)C as the compound, how does the ratio change, negative = inhibition read?
**A.** Its ratio change, negative = inhibition is inconclusive: -9.35%.

**Q.** For CC(C)COC(=O)n1c(=O)oc2cc(S(=O)(=O)N3CCCCC3)ccc21, which Potency is on record?
**A.** Its Potency is inconclusive: 35.5 µM [falling, single point].

**Q.** Which ratio change, negative = inhibition does the source give for COc1ccc(-c2cc(-c3ccccc3)[n+](C)c(-c3ccccc3)c2)cc1 here?
**A.** Its ratio change, negative = inhibition is inconclusive: -30.2% [at 46 µM].

**Q.** Which ratio change, negative = inhibition does the source give for CCCCCn1c(NC(=O)c2ccco2)c(C(=O)OCC)c2nc3ccccc3nc21 here?
**A.** Its ratio change, negative = inhibition is inconclusive: 5.42%.

**Q.** With O=[N+]([O-])c1ccccc1 as the compound, how does the Potency read?
**A.** Its Potency is inconclusive: 35.5 µM [inhibitor, single point].

**Q.** Which “ratio change, negative = inhibition” value does the source give for O=c1[nH]c(=O)n(CCc2ccccc2)c(O)c1C=NCCCn1ccnc1 here?
**A.** The value was inactive: -4.56%.

**Q.** With CCCN(CC#CCOc1ccc(OC)cc1)CCC as the compound, how does the “ratio change, negative = inhibition” value read?
**A.** The value was inactive: 10.1%.

**Q.** With CCCNC(=O)c1c(N)n(Cc2ccco2)c2nc3ccccc3nc12 as the compound, how does the “ratio change, negative = inhibition” value read?
**A.** Its value is inactive: -0.385%.

**Q.** With CC[C@@H](CO)NC(=O)[C@@H]1C=C2c3cccc4c3c(cn4C)C[C@H]2N(C)C1 as the compound, how does the ratio change, negative = inhibition read?
**A.** The ratio change, negative = inhibition was inconclusive: -27.2%.

**Q.** With CCn1cc(C(=O)O)c(=O)c2cc(F)c(N3CCNCC3)cc21 as the compound, how does the ratio change, negative = inhibition read?
**A.** The ratio change, negative = inhibition was inconclusive: -7.62%.
